In assay [1] the target is T1, GARS, endogenous in bladder cancer tumor tissue (human (endogenous in bladder cancer tumor tissue)) (UniProt P41250).
T1 sequence: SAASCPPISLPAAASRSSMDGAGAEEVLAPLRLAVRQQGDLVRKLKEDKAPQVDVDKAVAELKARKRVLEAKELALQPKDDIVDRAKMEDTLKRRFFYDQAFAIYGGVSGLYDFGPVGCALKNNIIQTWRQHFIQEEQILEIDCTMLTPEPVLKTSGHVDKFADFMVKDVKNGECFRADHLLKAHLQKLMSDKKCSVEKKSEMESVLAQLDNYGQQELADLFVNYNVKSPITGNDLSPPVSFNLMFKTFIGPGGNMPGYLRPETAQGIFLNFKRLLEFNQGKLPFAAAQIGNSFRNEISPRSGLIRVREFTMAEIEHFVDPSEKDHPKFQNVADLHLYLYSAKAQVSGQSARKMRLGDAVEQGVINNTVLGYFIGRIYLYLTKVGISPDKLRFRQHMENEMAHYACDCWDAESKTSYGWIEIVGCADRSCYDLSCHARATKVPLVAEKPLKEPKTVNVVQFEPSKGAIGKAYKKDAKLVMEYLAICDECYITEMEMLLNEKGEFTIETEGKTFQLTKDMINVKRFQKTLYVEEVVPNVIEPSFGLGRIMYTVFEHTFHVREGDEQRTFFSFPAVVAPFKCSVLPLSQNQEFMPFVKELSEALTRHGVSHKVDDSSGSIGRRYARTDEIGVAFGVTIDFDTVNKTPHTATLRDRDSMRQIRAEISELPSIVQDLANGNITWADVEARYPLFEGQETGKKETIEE
The experiment in a line: co-IP; bladder cancer tumor tissues; which protein was precipitated is not given.

Chains of the proteins cited; added tags and fusions are not shown.
UniProt P14618: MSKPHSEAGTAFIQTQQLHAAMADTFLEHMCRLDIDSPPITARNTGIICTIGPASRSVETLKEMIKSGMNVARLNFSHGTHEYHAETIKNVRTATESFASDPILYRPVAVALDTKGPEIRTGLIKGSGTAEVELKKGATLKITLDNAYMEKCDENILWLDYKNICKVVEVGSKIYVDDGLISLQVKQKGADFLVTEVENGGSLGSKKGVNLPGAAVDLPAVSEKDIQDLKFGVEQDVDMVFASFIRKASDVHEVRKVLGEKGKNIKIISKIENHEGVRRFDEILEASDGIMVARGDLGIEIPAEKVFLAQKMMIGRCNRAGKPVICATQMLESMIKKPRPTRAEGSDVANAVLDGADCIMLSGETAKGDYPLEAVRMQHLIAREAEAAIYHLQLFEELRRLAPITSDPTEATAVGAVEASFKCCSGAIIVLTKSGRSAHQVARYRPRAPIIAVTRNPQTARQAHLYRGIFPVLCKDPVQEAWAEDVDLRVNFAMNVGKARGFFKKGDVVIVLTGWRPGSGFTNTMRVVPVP

For assay [2], the target named is T2, GARS, exogenously expressed (UniProt P41250).
T2 sequence: T1 sequence
Description: co-IP; exogenously expressed proteins in 5637 and T24 cell lines; which protein was precipitated is not given.

Results are given in words; binding and its absence hold for the method and conditions named. In cells and extracts the contact can be indirect. Some entries that bind do so weakly or less than the wild type.

Take “PKM2, endogenous in bladder cancer tumor tissue (from UniProt P14618 1-531) (enzyme)”: the binding result in assay [1] is reported as “binds”.
For the substance “PKM2, exogenously expressed (from UniProt P14618 1-531) (enzyme)”, in assay [2], the binding entry is listed as “binds”.
